# According to PubChem BioAssay AID1671190 (National Center for Advancing Translational Sciences (NCATS), 2021):
# By UniProt entry, the sequences of proteins in these tests, tags left out. Where a name states a change or a piece, a line headed by the entry shows the natural chain unless it says otherwise.
# UniProt P18054: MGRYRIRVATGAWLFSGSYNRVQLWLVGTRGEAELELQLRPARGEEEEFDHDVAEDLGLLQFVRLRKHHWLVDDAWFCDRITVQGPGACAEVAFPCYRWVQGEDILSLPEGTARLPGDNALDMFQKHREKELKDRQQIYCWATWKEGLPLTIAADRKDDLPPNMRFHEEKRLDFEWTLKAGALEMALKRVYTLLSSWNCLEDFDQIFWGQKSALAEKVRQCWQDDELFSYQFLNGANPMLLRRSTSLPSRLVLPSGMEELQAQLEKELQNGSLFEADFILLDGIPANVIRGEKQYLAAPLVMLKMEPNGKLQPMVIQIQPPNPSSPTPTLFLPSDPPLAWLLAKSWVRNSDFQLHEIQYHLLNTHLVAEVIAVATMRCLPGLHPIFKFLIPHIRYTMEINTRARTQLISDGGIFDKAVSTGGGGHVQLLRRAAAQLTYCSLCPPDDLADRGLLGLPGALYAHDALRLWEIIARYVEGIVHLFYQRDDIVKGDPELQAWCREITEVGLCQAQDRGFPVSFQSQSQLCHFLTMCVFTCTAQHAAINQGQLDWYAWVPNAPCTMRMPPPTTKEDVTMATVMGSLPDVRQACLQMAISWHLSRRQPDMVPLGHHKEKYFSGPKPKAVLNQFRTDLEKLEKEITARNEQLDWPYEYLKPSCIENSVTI
# The campaign covered roughly 580,000 compounds. About 6,100 (1.1%) were called active. The shares of active, inactive and inconclusive entries below differ from those in the screen. Calls come from the whole dose curve; as a rule, active = well fitted inhibition curve with a large enough effect; inconclusive = small, poorly fitted or top-dose-only effect, or another doubt; inactive = no such curve, though single readings can be large or run the other way. Potencies of inconclusive entries are doubtful fits and often do not repeat.
# Target: Polyunsaturated fatty acid lipoxygenase ALOX12 (Homo sapiens) (UniProt P18054)
# Experiment: Primary qHTS assay for inhibitors of human arachidonate 12S-lipoxygenase (ALOX12): Round 2
# Conditions: purified 12hLO, xylenol orange hydroperoxide absorbance; activity change, negative = inhibition: at 108 µM (top of the series) unless noted
# Procedure, shortened: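 Purified human 12hLO (150 nM final) in 25 mM Hepes, 0.01% Triton X-100, pH 7.0 was preincubated 15 min at room temperature with compound. Then 40 uM arachidonic acid was added, 30 min. Hydroperoxide was read by Fe-XO absorbance ratio 573/405 nm.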
# % is set by controls: 0 for no effect and ±100 for the full control effect; potency is the fitted concentration of half-maximal effect.
SMILES,Potency,"activity change, negative = inhibition"
O=C(CSc1nc2ccccc2s1)Nc1ccc(Cl)c(C(=O)O)c1,"inconclusive: 35.5 µM [inhibitor, partial curve, poor fit]",–
Cc1ccc(NC(=O)c2c(NC(=O)C(F)(F)F)sc3c2CCCCC3)cc1,"inconclusive: 50.1 µM [inhibitor, partial curve, poor fit]",–
CCc1nn2c(=O)cc(COc3cccc(C)c3)nc2s1,"inconclusive: 7.94 µM [inhibitor, full curve]",–
COc1cc(C2C(C(=O)c3ccco3)=C(O)C(=O)N2Cc2ccccc2)ccc1O (stereo unspecified),"inconclusive: 44.7 µM [inhibitor, partial curve, poor fit]",–
O=C(Cn1c(-c2cccs2)cc2ccccc21)NCCCN1CCN(c2ccccc2F)CC1,"inconclusive: 112 µM [inhibitor, partial curve, poor fit]",–
Cc1cc(C(=O)Nc2cccc(I)c2)c(C)o1,"inconclusive: 50.1 µM [inhibitor, partial curve, poor fit]",–
COc1ccc2oc(C(=O)OCC(=O)NCc3ccco3)c(C)c2c1,"inconclusive: 44.7 µM [inhibitor, partial curve, poor fit]",–
COc1ccc(/C=N/NC(=O)c2nc(-c3ccccc3)n(-c3ccccc3)n2)c(O)c1,–,inactive: 6.58%
Cc1cc(C)nc(/N=C(\N)Nc2ccc3c(c2)OCCO3)n1,–,inactive: -6.01%
COc1cccc(C(=O)/C(C#N)=C\c2ccccc2OC(F)F)c1,"inconclusive: 35.5 µM [inhibitor, partial curve]",–
FC(F)(F)c1cnc(-c2cnc(-c3ccccn3)nc2)c(Cl)c1,–,inactive: -0.268%
Cc1oc(-c2ccccc2Cl)nc1CS(=O)(=O)CC(=O)NCCN1CCOCC1,–,inactive: -0.629%
Clc1ccc2[nH]c3c(NCCN4CCOCC4)ncnc3c2c1,–,inactive: 3.39%
COc1ccc(C(=O)NNc2ccccc2)cc1OC,"inconclusive: 39.8 µM [inhibitor, partial curve, poor fit]",–
CCOc1ccccc1OCC(=O)Nc1ccc2oc(C)nc2c1,–,inactive: 6.45%
COc1cccc(C(=O)N2CCC3(CC2)NC(=O)N(c2ccc(F)cc2)N3)c1OC,active: 3.98 µM,–
Cc1ccc(C=C(C#N)C(=O)c2ccccc2)cc1,–,inactive: -9.08%
CC(C)(C)N(Cc1nc(-c2ccccc2)no1)C(=O)c1ccc2c(c1)OCO2,"inconclusive: 141 µM [inhibitor, partial curve, poor fit]",–
Cc1noc(C)c1CN1CCN(C(=O)c2cc(C3CC3)nn2-c2ccccc2)CC1,"inconclusive: 0.199 µM [inhibitor, full curve, poor fit]",–
COc1ccc(C(=O)NCC(c2ccccc2)N2CCCC2)cc1S(=O)(=O)N1CCOCC1 (stereo unspecified),"inconclusive: 126 µM [inhibitor, single point]",–
CNC1(c2nnnn2-c2ccccc2C)CCCC1,"inconclusive: 50.1 µM [inhibitor, partial curve, poor fit]",–
Cc1ccc(-n2c(C)cc(C(=O)OCC(=O)N3CCOCC3)c2C)cc1,–,inactive: 2.22%
Cc1ccc(/C(O)=C/c2nc3ccccc3oc2=O)cc1,–,inactive: -17.6%

SMILES,Potency,"activity change, negative = inhibition"
O=C(Nc1cccc(-c2ccc(N3CCCCC3)nn2)c1)c1ccco1,"inconclusive: 44.7 µM [inhibitor, partial curve, poor fit]",–
COC(=O)c1[nH]c2ccc(F)cc2c1NC(=O)CCN1CCN(Cc2ccc3c(c2)OCO3)CC1,–,inactive: 0.792%
COc1ccc(C2CC(=O)NC(SCC(=O)Nc3ccccc3F)=C2C#N)cc1OC (stereo unspecified),–,inactive: -10.7%
CC(Cl)C(=O)NC(=O)Nc1ccccc1 (stereo unspecified),"inconclusive: 39.8 µM [inhibitor, partial curve, poor fit]",–
O=C(c1cn(CCOc2ccccc2Cl)c2ccccc12)C(F)(F)F,–,inactive: -2.17%
Cc1nn2c(c1-c1ccccc1C(N)=O)N(CCCc1ccccc1)CCC2,"inconclusive: 22.4 µM [inhibitor, full curve]",–
Cc1ccc(NS(=O)(=O)c2ccc(-c3cc(C)no3)cc2)c(Br)c1,–,inconclusive: -45.5% [inhibitor]
CC1CC1C(=O)NC1CCC(c2ccccc2)CC1 (stereo unspecified),"inconclusive: 0.708 µM [inhibitor, full curve, poor fit]",–
CCOc1ccccc1NC(=O)N1CCC2(CC1)Oc1ccccc1C(=O)N2Cc1ccccc1F,"inconclusive: 100 µM [inhibitor, single point]",–
CCC(C(=O)NC1CCCC1)N(C(=O)Cn1nnc(-c2ccc(C)o2)n1)C(C)(C)C (stereo unspecified),"inconclusive: 2.82 µM [inhibitor, partial curve, poor fit]",–
O=C(NC1CCCC1)C(c1ccncc1)N(Cc1ccccc1)C(=O)c1ccc(-c2ccccc2)[nH]1 (stereo unspecified),–,inactive: -13.8%
O=C(Nc1ccc(Cc2ccncc2)cc1)c1ccc(S(=O)(=O)N2CCCC2)cc1,–,inactive: 9.38%
CC(=O)Nc1ccc2c(c1)CCCC2,"inconclusive: 112 µM [inhibitor, single point]",–
CCc1ccc(Nc2nc(CSc3ccc(Cl)cc3)nc3sc4c(c23)CCC4)cc1,–,inactive: 28.3%
CCOc1ccccc1NC(=O)c1c(NC(=O)Cc2ccc(OC)cc2)sc2c1CCC2,"inconclusive: 0.794 µM [inhibitor, full curve, poor fit]",–
CCN(CCc1nc2ccc(C)cc2[nH]1)C(=O)c1ccccc1C1CCNC1 (stereo unspecified),–,inactive: 32.4%
CCCOc1ccc(C(=O)NCC(c2cccs2)N(C)C)cc1OC (stereo unspecified),–,inactive: -19.7%
CCc1ccc(-c2cn[nH]c2C=O)cc1,–,inactive: -48.1%
CSc1ccccc1NC(=O)CN(C)Cc1cccc(Cl)c1,"inconclusive: 0.631 µM [inhibitor, full curve, poor fit]",–
C=CCOC(=O)C1=C[C@H](c2cn(C(C)=O)c3ccccc23)C[C@H](OCc2ccc(CO)cc2)O1,active: 39.8 µM,–
Cc1ccc(OCC(=O)Nc2cccc(C(=O)OCc3cc(=O)n4c(C)csc4n3)c2)cc1,"inconclusive: 44.7 µM [inhibitor, partial curve, poor fit]",–
CCCCOCCCNC(=O)CCC(=O)NC1CCCC(C)C1C (stereo unspecified),–,inactive: -17.7%
C=CCNc1nc(C(=O)OCC(=O)NCc2cccc(OC)c2)cs1,"inconclusive: 31.6 µM [inhibitor, partial curve, poor fit]",–

# One compound at a time, from the list above. Values in the order: Potency	activity change, negative = inhibition
# CCOc1ccccc1NC(=O)N1CCC2(CC1)Oc1ccccc1C(=O)N2Cc1ccccc1F in the list: inconclusive: 100 µM [inhibitor, single point]	–
# O=C(NC1CCCC1)C(c1ccncc1)N(Cc1ccccc1)C(=O)c1ccc(-c2ccccc2)[nH]1 (stereo unspecified) in the list: –	inactive: -13.8%
